For experiment [1], the target named is T1, AtSPO11-1 (Arabidopsis thaliana) (UniProt Q9M4A2).
T1 sequence: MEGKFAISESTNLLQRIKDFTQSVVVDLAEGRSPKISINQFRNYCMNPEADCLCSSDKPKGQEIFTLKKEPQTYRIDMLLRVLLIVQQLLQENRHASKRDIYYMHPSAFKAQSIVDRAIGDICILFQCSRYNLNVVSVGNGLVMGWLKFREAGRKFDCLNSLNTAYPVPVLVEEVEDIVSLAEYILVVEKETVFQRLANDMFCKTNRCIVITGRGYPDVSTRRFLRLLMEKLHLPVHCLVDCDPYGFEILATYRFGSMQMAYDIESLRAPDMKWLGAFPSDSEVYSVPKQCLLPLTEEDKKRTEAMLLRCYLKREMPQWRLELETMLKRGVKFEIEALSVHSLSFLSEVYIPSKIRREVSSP
Nature of the experiment: yeast three-hybrid; pBridge vector system (Clontech); bridge protein AtPRD1-A (1-388 aa) not expressed; growth in SD/-Leu-Trp-His-Ade medium.

Sequences of proteins named here, by UniProt entry; tags and fusion partners are left off. A change or cut given only in a name is not applied to a line headed by its entry.
UniProt Q5Q0E6: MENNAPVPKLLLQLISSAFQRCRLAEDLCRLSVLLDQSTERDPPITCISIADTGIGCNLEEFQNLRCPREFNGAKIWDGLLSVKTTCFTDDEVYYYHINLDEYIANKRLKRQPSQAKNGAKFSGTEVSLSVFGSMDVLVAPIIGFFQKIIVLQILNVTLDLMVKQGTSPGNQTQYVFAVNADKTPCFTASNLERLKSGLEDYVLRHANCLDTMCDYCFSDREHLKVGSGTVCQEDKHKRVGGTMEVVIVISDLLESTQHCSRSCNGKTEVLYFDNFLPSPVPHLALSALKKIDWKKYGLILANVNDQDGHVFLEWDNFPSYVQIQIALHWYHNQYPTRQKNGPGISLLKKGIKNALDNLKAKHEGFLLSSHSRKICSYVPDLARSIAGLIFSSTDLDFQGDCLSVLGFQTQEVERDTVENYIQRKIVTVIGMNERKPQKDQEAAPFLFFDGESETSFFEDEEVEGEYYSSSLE

The target of experiment [2] is T1, AtSPO11-1 (Arabidopsis thaliana). Nature of the experiment: two-hybrid; Gal4 vector system (Clontech), pGBKT7 and pGADT7, yeast AH109; growth on SD/-Trp-Leu-His-Ade plates, 3 to 7 days, 30 °C; cells serially diluted.
Experiment [3] has as its target T2, AtSPO11-2 (Arabidopsis thaliana) (UniProt Q9M4A1).
T2 sequence: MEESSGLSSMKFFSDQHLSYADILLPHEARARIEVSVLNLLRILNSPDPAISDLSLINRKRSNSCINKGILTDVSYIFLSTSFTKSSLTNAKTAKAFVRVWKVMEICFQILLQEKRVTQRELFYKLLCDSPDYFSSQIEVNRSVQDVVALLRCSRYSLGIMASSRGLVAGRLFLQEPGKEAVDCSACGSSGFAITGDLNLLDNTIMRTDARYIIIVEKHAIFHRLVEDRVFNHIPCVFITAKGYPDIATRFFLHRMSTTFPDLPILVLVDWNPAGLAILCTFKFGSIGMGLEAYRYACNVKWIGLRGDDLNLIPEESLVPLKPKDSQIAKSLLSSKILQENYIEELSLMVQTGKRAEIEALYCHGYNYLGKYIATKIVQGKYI
The experiment is described as above.

The target of experiment [4] is T1, AtSPO11-1 (Arabidopsis thaliana). Briefly: yeast three-hybrid; pBridge vector system (Clontech); bridge protein AtPRD1-A (1-388 aa) expressed; growth in SD/-Leu-Trp-His-Met medium, 5 to 8 days, 30 °C.
For experiment [5], the target named is T3, AtSPO11-1 (BiFC fusion) (Arabidopsis thaliana) (UniProt Q9M4A2).
T3 sequence: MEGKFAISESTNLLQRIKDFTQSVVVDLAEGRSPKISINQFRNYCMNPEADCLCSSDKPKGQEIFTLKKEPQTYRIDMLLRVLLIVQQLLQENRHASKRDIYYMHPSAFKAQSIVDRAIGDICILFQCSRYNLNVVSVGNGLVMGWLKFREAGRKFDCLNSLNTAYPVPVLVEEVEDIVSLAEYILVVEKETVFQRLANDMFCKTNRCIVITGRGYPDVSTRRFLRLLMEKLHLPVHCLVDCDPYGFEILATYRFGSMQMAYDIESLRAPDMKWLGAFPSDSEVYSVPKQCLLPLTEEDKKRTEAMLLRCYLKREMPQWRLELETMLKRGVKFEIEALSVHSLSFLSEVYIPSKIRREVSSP
Nature of the experiment: split reporter; BiFC, pSPYNE-35S and pSPYCE-35S, onion epidermal cells, gene gun; confocal microscopy 16–24 h after transformation.

Experiment [6] deals with T4, AtSPO11-2 (BiFC fusion) (Arabidopsis thaliana) (UniProt Q9M4A1).
T4 sequence: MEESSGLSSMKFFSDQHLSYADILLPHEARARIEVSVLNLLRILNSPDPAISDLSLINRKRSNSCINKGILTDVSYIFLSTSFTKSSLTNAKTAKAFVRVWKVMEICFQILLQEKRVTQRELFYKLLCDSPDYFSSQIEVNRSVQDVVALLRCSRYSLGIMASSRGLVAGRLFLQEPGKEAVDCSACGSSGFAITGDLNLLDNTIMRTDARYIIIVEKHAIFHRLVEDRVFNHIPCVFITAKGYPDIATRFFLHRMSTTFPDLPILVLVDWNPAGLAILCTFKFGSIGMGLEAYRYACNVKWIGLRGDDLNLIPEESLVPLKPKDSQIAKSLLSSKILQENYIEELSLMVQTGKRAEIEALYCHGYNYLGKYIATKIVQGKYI
The experiment is described as above.

Experiment [7] deals with MTOPVIB (Arabidopsis thaliana) (UniProt Q5Q0E6). Nature of the experiment: yeast three-hybrid; pBridge vector system (Clontech); bridge protein AtPRD1-A (1-388 aa) not expressed; growth in SD/-Leu-Trp-His-Ade medium.
For experiment [8] the target is unchanged. Nature of the experiment: yeast three-hybrid; pBridge vector system (Clontech); bridge protein AtPRD1-A (1-388 aa) expressed; growth in SD/-Leu-Trp-His-Met medium, 5 to 8 days, 30 °C.
Experiment [9] has as its target AtPRD2 (Arabidopsis thaliana). Nature of the experiment: two-hybrid; Gal4 vector system (Clontech), pGBKT7 and pGADT7, yeast AH109; growth on SD/-Trp-Leu-His-Ade plates, 3 to 7 days, 30 °C; cells serially diluted.
Experiment [10] has as its target MTOPVIB (Arabidopsis thaliana) (UniProt Q5Q0E6). Described as above.

No constants are given. Whether binding was seen depends on the method and setting. For some of these results: Binding can be weak; no strength is given. For some of these results: Binding seen in cells or lysates may run through a third protein. For some of these results: Sequences can lack the tags named with a protein.

On to MTOPVIB (from UniProt Q5Q0E6-3), for which the binding result in [1], in [2], in [3] and in experiment [4] was “binds” throughout.
In the case of “MTOPVIB (BiFC fusion) (from UniProt Q5Q0E6-3)”, the binding result in [5] and in [6] was “binds” each time.

B1: AtSPO11-1 (protein, UniProt Q9M4A2 1-362)
chain: MEGKFAISESTNLLQRIKDFTQSVVVDLAEGRSPKISINQFRNYCMNPEADCLCSSDKPKGQEIFTLKKEPQTYRIDMLLRVLLIVQQLLQENRHASKRDIYYMHPSAFKAQSIVDRAIGDICILFQCSRYNLNVVSVGNGLVMGWLKFREAGRKFDCLNSLNTAYPVPVLVEEVEDIVSLAEYILVVEKETVFQRLANDMFCKTNRCIVITGRGYPDVSTRRFLRLLMEKLHLPVHCLVDCDPYGFEILATYRFGSMQMAYDIESLRAPDMKWLGAFPSDSEVYSVPKQCLLPLTEEDKKRTEAMLLRCYLKREMPQWRLELETMLKRGVKFEIEALSVHSLSFLSEVYIPSKIRREVSSP
Take B1: the binding entry in experiment [7] and in [8] was “binds” each time.

B2: full length AtPRD1 (1–1330 aa) (protein, UniProt O23277 1-1330)
chain: MFFQHSQLQNSDHLLHESMADSNHQSLSPPCANGHRSTISLRDDQGGTFCLICFSNLVSDPRIPTVHVSYALHQLSIAISEPIFLRTLLSSHIHFLVSPLVHALSSIDDAPIAIQIMDMISLLCSVEESSIGEDFVERISDQLSSGALGWSRRQLHMLHCFGVLMSCENININSHIRDKEALVCQLVEGLQLPSEEIRGEILFALYKFSALQFTEQNVDGIEVLSLLCPKLLCLSLEALAKTQRDDVRLNCVALLTILAQQGLLANSHSNSASSMSLDEVDDDPMQTAENVAARPCLNVLFAEAIKGPLLSTDSEVQIKTLDLIFHYISQESTPSKQIQVMVEENVADYIFEILRLSECKDQVVNSCLRVLDLFSLAEHSFRKRLVIGFPSVIRVLHYVGEVPCHPFQIQTLKLISSCISDFPGIASSSQVQEIALVLKKMLERYYSQEMGLFPDAFAIICSVFVSLMKTPSFGETADVLTSLQESLRHSILASLSLPEKDSTQILHAVYLLNEVYVYCTASTSINKTICIELRHCVIDVCTSHLLPWFLSDVNEVNEEATLGIMETFHSILLQNSDIQAKEFAELLVSADWFSFSFGCLGNFCTDNMKQRIYLMLSSLVDILLEQKTGSHIRDALHCLPSDPQDLLFLLGQASSNNQELASCQSAALLIFHTSSIYNDRLADDKLVLASLEQYIILNKTSLICAISDSPALLNLVNLYGLCRSLQNERYQISYSLEAERIIFHLLNEYEWDLGSINIHLESLKWLFQQESISKSLIYQIQKISRNNLIGNEVHNVYGDGRQRSLTYWFAKLISEGDNYAATLLVNLLTQLAEKEEQENDVISILNLMNTIVSIFPTASNNLSMNGIGSVIHRLVSGFSNSSLGTSFRTLLLLVFNILTSVQPAVLMIDESWYAVSIKLLNFLSLRDTAIKQNHEDMVVIGILSLVLYHSSDGALVEASRNIVSNSYLVSAINTVVDVACSKGPALTQCQDETNIGEALAFTLLLYFFSLRSLQIVLAGAVDWQTFFGTSTSLETLPVVCIHCHNLCRLMHFGAPQIKLIASYCLLELLTGLSEQVDIKKEQLQCSSSYLKSMKAVLGGLVFCDDIRVATNSALCLSMILGWEDMEGRTEMLKTSSWYRFIAEEMSVSLAMPCSASSTYVNHHKPAVYLTVAMLRLKNKPVWLRTVFDESCISSMIQNLNGINISREIVILFRELMQAELLNSQQVTKLDRAFQECRKQMHRNGTRDETVEEQVQRKIPSIHDHSEFCNYLVHLMVSNSFGHPSESETYTQKKKQILDEMEQFSELISTREGRVSPIQEETRQMQTERIV
As to B2, the binding result is recorded as “no binding” in experiment [9] and “binds” in experiment [10].

Source of the values: publication PMC5577129.
